Results published in patent US20220340657A1.
No constants are given. Whether binding was seen depends on the method and setting. Some results given as binding are weak or reduced against the parent protein; the word gives no strength.

The chains behind the UniProt entries cited, without tags or fusion partners. Where a name states a change or a piece, a line headed by the entry shows the natural chain unless it says otherwise. A line that says so, or that is headed by a name, gives the form on record, which may keep a tag or linker. Residues count along the entry.
bio-LAG3-mFc (P18627, residues 23-450): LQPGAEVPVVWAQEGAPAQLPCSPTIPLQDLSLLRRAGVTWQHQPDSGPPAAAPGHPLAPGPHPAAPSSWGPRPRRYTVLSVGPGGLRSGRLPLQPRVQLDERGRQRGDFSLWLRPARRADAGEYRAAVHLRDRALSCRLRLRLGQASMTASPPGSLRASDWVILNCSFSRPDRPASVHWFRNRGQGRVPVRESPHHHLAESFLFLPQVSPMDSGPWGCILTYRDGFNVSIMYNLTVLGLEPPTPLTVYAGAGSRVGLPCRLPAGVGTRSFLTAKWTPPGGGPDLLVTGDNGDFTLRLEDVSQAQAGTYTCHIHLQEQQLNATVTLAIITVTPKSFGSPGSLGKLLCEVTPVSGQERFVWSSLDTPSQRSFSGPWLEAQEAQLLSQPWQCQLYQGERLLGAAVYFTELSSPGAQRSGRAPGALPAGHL
human LAG-3-his (P18627, form named): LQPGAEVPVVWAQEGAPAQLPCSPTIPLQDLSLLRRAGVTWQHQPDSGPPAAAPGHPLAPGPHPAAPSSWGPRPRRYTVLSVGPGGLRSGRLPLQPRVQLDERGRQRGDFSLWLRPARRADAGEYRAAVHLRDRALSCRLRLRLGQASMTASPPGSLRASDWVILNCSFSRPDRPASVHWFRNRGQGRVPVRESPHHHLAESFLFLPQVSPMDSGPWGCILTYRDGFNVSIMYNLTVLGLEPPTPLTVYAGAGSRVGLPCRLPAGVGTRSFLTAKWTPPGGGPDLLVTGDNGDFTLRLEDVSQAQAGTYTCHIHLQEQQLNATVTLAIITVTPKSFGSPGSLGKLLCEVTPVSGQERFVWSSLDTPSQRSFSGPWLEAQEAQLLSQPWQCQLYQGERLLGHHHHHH

How the values were obtained:
human LAG-3-his (human) [1] = target: human LAG-3-his (human) (UniProt P18627); test: ELISA on coated human LAG-3-his, anti-human HRP, OD450 (Example 3) [panel a]
bio-LAG3-mFc (human) = bio-LAG3-mFc (human) (UniProt P18627); test: blocking ELISA on fixed Daudi cells: antibody titrated against bio-LAG3-mFc binding to Daudi cells (MHC II), streptavidin-HRP, OD450 (Example 4) [panel b]
human LAG-3-his (human) [2] = target: human LAG-3-his (human) (UniProt P18627); test: ELISA

binding (human LAG-3-his (human) [1]): binds
binding (bio-LAG3-mFc (human)): binds
binding (human LAG-3-his (human) [2]): binds
B1: chimeric antibody mab23c (antibody, human IgG4 S228P, kappa, V domains shown)
VH: QVQLQQSGAELVRPGASVTLSCKASGYTFTDYEMHWVKQTPVHGLEWIGGIDPETEGIAYNQKFRGKAILTADKSSITAYMELRSLTSEDSAVYYCTNSNYYGGREAWFAYWGQGTLVTVSG
VL: DIQMIQSPSSLSASLGERVSLTCRASQDIGSSLNWLQQEPDGTIKRLIYATSSLDSGVPKRFSGSRSGSDYSLTISSLESEDFVDYYCLQYVTSPLTFGAGTKLELKR
